# This is one part of the list.
# Protein sequences, listed by entry. Tags and fused reporters are not part of them.
# UniProt Q0JBA9, entry or part of it: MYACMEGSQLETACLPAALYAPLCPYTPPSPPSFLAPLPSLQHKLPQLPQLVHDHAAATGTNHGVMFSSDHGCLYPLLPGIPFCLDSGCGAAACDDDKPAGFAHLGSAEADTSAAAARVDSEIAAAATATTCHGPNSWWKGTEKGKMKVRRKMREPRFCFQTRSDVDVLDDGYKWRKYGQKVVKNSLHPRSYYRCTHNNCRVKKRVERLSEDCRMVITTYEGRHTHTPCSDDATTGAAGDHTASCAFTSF
# Target: OsWRKY34 (Oryza sativa, UniProt Q0JBA9 1-250)
# Test: protein-binding microarray (RPBM); PBS, 2% BSA, 51.3 ng/ul salmon testes DNA, 50 uM zinc acetate, 200 nM TF, 25 C, 1 h; high values mean tight binding
# Conditions: protein: recombinant; tags: N-terminal polyhistidine and DsRed monomer fusion (pET32a); label: CyDye5-dUTP incorporated in the synthesized complementary strand; 3' TTTTT single-stranded linker to array surface; dsDNA, one strand shown
# In short: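 Transcription factors, each fused N-terminally to a polyhistidine tag and DsRed, were expressed in E. coli BL21-CodonPlus and purified on Ni–NTA. A custom Agilent array was made double-stranded by primer extension with Cy5-dUTP and blocked with 2% BSA. It was incubated with 200 nM protein in PBS, 2% BSA, salmon testes DNA and 50 µM zinc acetate at 25 °C for 1 h, then washed. The binding signal is per-feature fluorescence intensity (arbitrary units) read on an Axon 4000B scanner.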
row,Sequence,binding signal
1,AACTGGAAAAGTCTATCTGTTGTCCTCAGCCCGTCCTTCCCGGAGTCACCTAGTGCAG,9160 fluorescence intensity (a.u.)
2,TATGGGCTGCTTGGTGCTTTCTTGTGTAAGTGTTCTCTCACGGAGTCACCTAGTGCAG,8840 fluorescence intensity (a.u.)
3,TGGTTGCTACTATACTACTGATCCTTGTTATGTACCATATCGGAGTCACCTAGTGCAG,8290 fluorescence intensity (a.u.)
4,GGGTGGCATACAAACATGTTTTCAATTTTGCCTTTCGATCCGGAGTCACCTAGTGCAG,8600 fluorescence intensity (a.u.)
5,ATCGCTGCTGTCTTCTCAAATTATAATTTACCGTTTTTAACGGAGTCACCTAGTGCAG,8090 fluorescence intensity (a.u.)
6,GCCACCGCCCAATCTCCCTCACCAGAGCTCCACTAACCAACGGAGTCACCTAGTGCAG,8290 fluorescence intensity (a.u.)
7,ACACTTGCTTTCAACACGTTAGTTCTTCGTCAACGGAGCTCGGAGTCACCTAGTGCAG,8970 fluorescence intensity (a.u.)
8,GGGGAGGGGCGCCGATTTCTCCATCTGGCGAGCAGAGCAGCGGAGTCACCTAGTGCAG,9250 fluorescence intensity (a.u.)
9,GCTATCGGAGTATCGATTTTGTTGTGCTCAGTGATCTGTTCGGAGTCACCTAGTGCAG,8570 fluorescence intensity (a.u.)
10,CACCTAGATTAATTACTTCCTCACGAAGCACCAAGTCTTACGGAGTCACCTAGTGCAG,8830 fluorescence intensity (a.u.)
11,CTCCACCTCCACCATTGATTTCCTCGCGCCACTCCACTCACGGAGTCACCTAGTGCAG,12200 fluorescence intensity (a.u.)
12,TCCCAATTGAATATTTGCACACATTTGTTTCTTTCCTTTGCGGAGTCACCTAGTGCAG,11400 fluorescence intensity (a.u.)
13,CCTTAATAGTTCCTTCTGGTTCAGTGGCATTACCCAATGACGGAGTCACCTAGTGCAG,9980 fluorescence intensity (a.u.)
14,GTAGGAAAGCTACTCGGCCGTTGACCAAACAAATTAATGACGGAGTCACCTAGTGCAG,10800 fluorescence intensity (a.u.)
15,GTGTAATTGGTTTTTTTCGTCTATATTTAATGCTCTATATCGGAGTCACCTAGTGCAG,9420 fluorescence intensity (a.u.)
16,GTCATTTTGTCTTTTTCTCTAAGTCAAACTTCTTTAATTTCGGAGTCACCTAGTGCAG,10900 fluorescence intensity (a.u.)
17,CACTTCCCCGACGACTCCATCATCATGCTCACCGGTAACTCGGAGTCACCTAGTGCAG,9470 fluorescence intensity (a.u.)
18,CCCAGTTCCATTCCGAGTTTATGTGTTCGTCACCATCACCCGGAGTCACCTAGTGCAG,8030 fluorescence intensity (a.u.)
19,TCTTCTGCCGCGTCGGCTTCGCCTCCGCCTCGCCCTGCGACGGAGTCACCTAGTGCAG,8680 fluorescence intensity (a.u.)
20,ATCCTTCCAGGCTTTCCAGCCCACCGCTCCACCGATCTCGCGGAGTCACCTAGTGCAG,8990 fluorescence intensity (a.u.)
21,AACCCAAAACTGACGAACTCGATCGCTTCACTTTCCACCACGGAGTCACCTAGTGCAG,9290 fluorescence intensity (a.u.)

# Retrieved one by one from above:
row,Sequence,binding signal
19,TCTTCTGCCGCGTCGGCTTCGCCTCCGCCTCGCCCTGCGACGGAGTCACCTAGTGCAG,8680 fluorescence intensity (a.u.)
10,CACCTAGATTAATTACTTCCTCACGAAGCACCAAGTCTTACGGAGTCACCTAGTGCAG,8830 fluorescence intensity (a.u.)
7,ACACTTGCTTTCAACACGTTAGTTCTTCGTCAACGGAGCTCGGAGTCACCTAGTGCAG,8970 fluorescence intensity (a.u.)
4,GGGTGGCATACAAACATGTTTTCAATTTTGCCTTTCGATCCGGAGTCACCTAGTGCAG,8600 fluorescence intensity (a.u.)
20,ATCCTTCCAGGCTTTCCAGCCCACCGCTCCACCGATCTCGCGGAGTCACCTAGTGCAG,8990 fluorescence intensity (a.u.)
21,AACCCAAAACTGACGAACTCGATCGCTTCACTTTCCACCACGGAGTCACCTAGTGCAG,9290 fluorescence intensity (a.u.)

# (next part)

row,Sequence,binding signal
1,TCCAAGTCAAATTGTCACGTATGCGCCATGTCAAAGCCACCGGAGTCACCTAGTGCAG,8580 fluorescence intensity (a.u.)
2,AAGTACTCCCTCCGTATTTTAATGTATGACGCCGTTGACTCGGAGTCACCTAGTGCAG,9690 fluorescence intensity (a.u.)
3,GCCAGCCGGCATGTCGTCGTTGTCATCCACTTGCCAGCAACGGAGTCACCTAGTGCAG,8450 fluorescence intensity (a.u.)
4,CGGTGCCATTGGCTGGCCCATCATCGTACCAGCCAGTCCACGGAGTCACCTAGTGCAG,8540 fluorescence intensity (a.u.)
5,TTTTGTCATTGTCAAATTTTGATAAGTTTGTCAAAATTTTCGGAGTCACCTAGTGCAG,9080 fluorescence intensity (a.u.)
6,GCCTCCATAGCTAGCCCACTCGAGCCCTTCAACTTCTCGCCGGAGTCACCTAGTGCAG,11900 fluorescence intensity (a.u.)
7,CCTTCTATACTACTCTCTCGTTACATAATATAAAGATTTTCGGAGTCACCTAGTGCAG,8370 fluorescence intensity (a.u.)
8,GCCTTTTTTTTTTCTGAATTCTGAACACTTCTACTATTGACGGAGTCACCTAGTGCAG,8480 fluorescence intensity (a.u.)
9,AGTTGCATCATCAACTCCATCTTTAATACTTCCCAACTCACGGAGTCACCTAGTGCAG,8980 fluorescence intensity (a.u.)
10,GCAACAGCCAGCCCACCACCGCTTCCTCGCTCTGATGTTACGGAGTCACCTAGTGCAG,10300 fluorescence intensity (a.u.)
11,GGACAACGATTTTCCTAGTTGTGGGAGGGTGGCCGGCTCGCGGAGTCACCTAGTGCAG,9540 fluorescence intensity (a.u.)
12,TCGCCCGTCACCATCCGCATTCCCAGCAAGTTCCCAGGAGCGGAGTCACCTAGTGCAG,8580 fluorescence intensity (a.u.)
13,TTTCTTCATCACTTGCTGCTCTGTTACATTGCTTCGTGCACGGAGTCACCTAGTGCAG,10800 fluorescence intensity (a.u.)
14,GGTTAGGTATAGATTCTCATTGTTGATTTTTTACTCTCCTCGGAGTCACCTAGTGCAG,8740 fluorescence intensity (a.u.)
15,AGGAAAGAGAAGGAGCTAGCTGTGTGAAGTGTGTAGTGTGCGGAGTCACCTAGTGCAG,8270 fluorescence intensity (a.u.)
16,CGGCACCACTCTCTGTTCACCACGGCTCAGGCATTAAAGACGGAGTCACCTAGTGCAG,8290 fluorescence intensity (a.u.)
17,CGGCGGTAGCACGGTCCTCAGCCACGCCCTTTGTTGCACGCGGAGTCACCTAGTGCAG,8090 fluorescence intensity (a.u.)
18,ACCCATTCCACTCGCCCCTCAACAAAACACCTCTAAAAGTCGGAGTCACCTAGTGCAG,9600 fluorescence intensity (a.u.)
19,TGTAAGACTTTCTAGCATTGCCCACATTCATTTAGATGTTCGGAGTCACCTAGTGCAG,8080 fluorescence intensity (a.u.)
20,TAATATTAATAAATAAAAAACCAGCGGTCGAACCGTTGACCGGAGTCACCTAGTGCAG,13000 fluorescence intensity (a.u.)
21,CCTTCGCTGCCACCATCTCCTTCGCCGCCGGGCACCATCGCGGAGTCACCTAGTGCAG,11000 fluorescence intensity (a.u.)

row,Sequence,binding signal
1,TCCCCGTCCCAGTCGCCGCCGTCCCCATCCCCAGCCATGTCGGAGTCACCTAGTGCAG,8910 fluorescence intensity (a.u.)
2,TCAGAGATTCCAGCTTTGGTTAGTGGCTCGTGTGTCGTTTCGGAGTCACCTAGTGCAG,8380 fluorescence intensity (a.u.)
3,ATATAGGGTATTGTGGTTGAGTGATACGAAATAGATTGGACGGAGTCACCTAGTGCAG,8570 fluorescence intensity (a.u.)
4,GCCACTGTCGCCGTCCTGTGCCGATGTCGACATCCGCCTCCGGAGTCACCTAGTGCAG,8890 fluorescence intensity (a.u.)
5,TCACTGCAACATTTTTTTTGTTTGGAAAAATCATCATCATCGGAGTCACCTAGTGCAG,8680 fluorescence intensity (a.u.)
6,CTTCTGGGACTCTCACACGCCCATGGCCTCGCATGAGTCACGGAGTCACCTAGTGCAG,8350 fluorescence intensity (a.u.)
7,TGCTTATTGGTGGGTGTAAATTTGTAGGGTCTGAATTAATCGGAGTCACCTAGTGCAG,12000 fluorescence intensity (a.u.)
8,TTTTATAATCCTTTACTTTACACCTGAATTCATATTAGAACGGAGTCACCTAGTGCAG,8540 fluorescence intensity (a.u.)
9,CCTGATTATCCCGTGTCTTCTCCGCTTCTGGGTTGGTTGCCGGAGTCACCTAGTGCAG,12600 fluorescence intensity (a.u.)
10,ACCATTTTAAAAAAGATGTTTCTCTTTTTCGTTTCGACAACGGAGTCACCTAGTGCAG,8610 fluorescence intensity (a.u.)
11,ATTACTCCATCCGTTTCACAATGTAAGTCATTCTAGCATTCGGAGTCACCTAGTGCAG,9340 fluorescence intensity (a.u.)
12,GAGGGGCGAAGATTTCTGGTTTTGCGGTTAAGGGAACTTACGGAGTCACCTAGTGCAG,8200 fluorescence intensity (a.u.)
13,CTGCTCTTATTATATTCGTTTCCGTATTTGCTACAATCAACGGAGTCACCTAGTGCAG,11100 fluorescence intensity (a.u.)
14,CGTGTCTTTCCATACCCTGCGCGACGCGACGCGACGCTGTCGGAGTCACCTAGTGCAG,11300 fluorescence intensity (a.u.)
15,CCACCTATCATGCACGCGGCATCTGTTCGGCCGGCCCAACCGGAGTCACCTAGTGCAG,9750 fluorescence intensity (a.u.)
16,GTCCCGCGTCGCGCTGTCCAGGCTCTCGCTGATCCCTCGCCGGAGTCACCTAGTGCAG,10400 fluorescence intensity (a.u.)
17,CATTATTTTCCAATGCTATTGGGTGGGTTGATTTGATAGACGGAGTCACCTAGTGCAG,13200 fluorescence intensity (a.u.)
18,TCAAGCAGGCTCGAACTCCGTACTGATTTGTTCTTTGATTCGGAGTCACCTAGTGCAG,10900 fluorescence intensity (a.u.)
19,ATCTCTCCCTTTTCTTTTGAAATTTTGAATATCTATCCCACGGAGTCACCTAGTGCAG,8960 fluorescence intensity (a.u.)
20,CTCCGCCCATTTCTCCTCTCCACCTGCGATCCATCCGCGCCGGAGTCACCTAGTGCAG,9270 fluorescence intensity (a.u.)
21,CACCGAGCCGCTGACCTTATCTATCCATCCACCCCACACACGGAGTCACCTAGTGCAG,8980 fluorescence intensity (a.u.)

row,Sequence,binding signal
1,CCATCGCCCACGCCCTCGCGCGCACCCGGAACGCGTGACCCGGAGTCACCTAGTGCAG,10600 fluorescence intensity (a.u.)
2,AGCTCGGAGGTCGGAGGGGAGGGGTGGTACGACTACAATGCGGAGTCACCTAGTGCAG,13900 fluorescence intensity (a.u.)
3,AGGTAATCATATTGTTGTTATTCGTGGATGGGGTGGGCTCCGGAGTCACCTAGTGCAG,16400 fluorescence intensity (a.u.)
4,TAGGTCTGCTTCAGAGATGGGGTTAGGGTTAGATTTGTTCCGGAGTCACCTAGTGCAG,14000 fluorescence intensity (a.u.)
5,TGCTCGATAGCCGCTTCCCCGTCGCGCCCTCCAGGTTTTACGGAGTCACCTAGTGCAG,10700 fluorescence intensity (a.u.)
6,TGAATCCTAGCGAGAGTTTTTGTCCGCTTCCATCTCTCTCCGGAGTCACCTAGTGCAG,9000 fluorescence intensity (a.u.)
7,AAGCGTGACATCCCTAATCGGCATTTGATCAAGCAACTCACGGAGTCACCTAGTGCAG,8180 fluorescence intensity (a.u.)
8,AATTTTCTTAAAATTTGAGGTTTAGTTTGACTTTCTTTTTCGGAGTCACCTAGTGCAG,9400 fluorescence intensity (a.u.)
9,GATTGCTGTTTCACTTACAAATGGATCCCATGTGTCTTTTCGGAGTCACCTAGTGCAG,10000 fluorescence intensity (a.u.)
10,CTTGTTCTTTCGTTGATGTGTTCTTGGTTTTGAGTTCTCTCGGAGTCACCTAGTGCAG,12500 fluorescence intensity (a.u.)
11,ATTCTCCTTCGCCCACGATTTTCTTCGTCTTCTTCGTCTCCGGAGTCACCTAGTGCAG,9760 fluorescence intensity (a.u.)
12,CGTAAAAAGGTTCCTATATAGTACTCTATCAGTTCTTCTTCGGAGTCACCTAGTGCAG,8980 fluorescence intensity (a.u.)
13,CCCATTTTACATCCACCACCCTAATCCACATCTCTATTTACGGAGTCACCTAGTGCAG,8070 fluorescence intensity (a.u.)
14,TCCTGTTTCTTTCTCCCCTTTCTCTGTTTTTTGGCAGTTTCGGAGTCACCTAGTGCAG,12700 fluorescence intensity (a.u.)
15,AAATAACATCACAGTTCGCTATCGTCATCCTATTCCTAGGCGGAGTCACCTAGTGCAG,8290 fluorescence intensity (a.u.)
16,GCTAATTTGACTCGGTTTTCATCTGACGTGGCATTGACGTCGGAGTCACCTAGTGCAG,9180 fluorescence intensity (a.u.)
17,TGGTAGGTATCAAGCATATATATTCTTCTCTTTCCAATTTCGGAGTCACCTAGTGCAG,9850 fluorescence intensity (a.u.)
18,GACGTGTCCTTTTCTTTTTTTTCTTCTTTTCTTTTTTTTTCGGAGTCACCTAGTGCAG,8510 fluorescence intensity (a.u.)
19,GGTGTTGTCATTGGTCAGGTGAGTTGTAGCTTGAATTGAACGGAGTCACCTAGTGCAG,10300 fluorescence intensity (a.u.)
20,TCCGTACAACCGCTCATCCTAGCCGAACGTGTATGACCTCCGGAGTCACCTAGTGCAG,10600 fluorescence intensity (a.u.)
21,GTTGTTGCGGGAGGGAATTGTGTTGTTCTGTTGTAGTAGTCGGAGTCACCTAGTGCAG,15500 fluorescence intensity (a.u.)

# Source: publication PMC7819943, “Rice protein-binding microarrays: a tool to detect cis-acting elements near promoter regions in rice”
